Data on three substances can be found in PMC12718141.

By UniProt entry, the sequences of proteins in these tests, tags left out.
UniProt O00571: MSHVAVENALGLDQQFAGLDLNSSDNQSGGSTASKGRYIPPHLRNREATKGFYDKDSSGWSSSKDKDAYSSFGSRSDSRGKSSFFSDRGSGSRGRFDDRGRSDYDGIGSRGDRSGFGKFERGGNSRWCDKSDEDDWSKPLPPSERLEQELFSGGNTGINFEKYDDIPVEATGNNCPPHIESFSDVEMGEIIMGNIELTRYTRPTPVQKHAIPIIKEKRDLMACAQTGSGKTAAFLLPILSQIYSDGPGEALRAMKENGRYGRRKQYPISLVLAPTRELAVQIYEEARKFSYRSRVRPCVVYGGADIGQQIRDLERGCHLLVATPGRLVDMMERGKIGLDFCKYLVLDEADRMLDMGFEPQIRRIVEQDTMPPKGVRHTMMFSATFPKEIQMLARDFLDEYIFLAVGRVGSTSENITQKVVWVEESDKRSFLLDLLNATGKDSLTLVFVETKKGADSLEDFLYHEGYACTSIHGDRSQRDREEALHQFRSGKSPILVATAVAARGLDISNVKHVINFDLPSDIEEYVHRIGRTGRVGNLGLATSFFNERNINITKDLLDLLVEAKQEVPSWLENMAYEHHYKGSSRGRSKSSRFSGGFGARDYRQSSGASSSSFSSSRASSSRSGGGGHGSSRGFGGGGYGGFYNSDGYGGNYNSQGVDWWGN
UniProt P21333: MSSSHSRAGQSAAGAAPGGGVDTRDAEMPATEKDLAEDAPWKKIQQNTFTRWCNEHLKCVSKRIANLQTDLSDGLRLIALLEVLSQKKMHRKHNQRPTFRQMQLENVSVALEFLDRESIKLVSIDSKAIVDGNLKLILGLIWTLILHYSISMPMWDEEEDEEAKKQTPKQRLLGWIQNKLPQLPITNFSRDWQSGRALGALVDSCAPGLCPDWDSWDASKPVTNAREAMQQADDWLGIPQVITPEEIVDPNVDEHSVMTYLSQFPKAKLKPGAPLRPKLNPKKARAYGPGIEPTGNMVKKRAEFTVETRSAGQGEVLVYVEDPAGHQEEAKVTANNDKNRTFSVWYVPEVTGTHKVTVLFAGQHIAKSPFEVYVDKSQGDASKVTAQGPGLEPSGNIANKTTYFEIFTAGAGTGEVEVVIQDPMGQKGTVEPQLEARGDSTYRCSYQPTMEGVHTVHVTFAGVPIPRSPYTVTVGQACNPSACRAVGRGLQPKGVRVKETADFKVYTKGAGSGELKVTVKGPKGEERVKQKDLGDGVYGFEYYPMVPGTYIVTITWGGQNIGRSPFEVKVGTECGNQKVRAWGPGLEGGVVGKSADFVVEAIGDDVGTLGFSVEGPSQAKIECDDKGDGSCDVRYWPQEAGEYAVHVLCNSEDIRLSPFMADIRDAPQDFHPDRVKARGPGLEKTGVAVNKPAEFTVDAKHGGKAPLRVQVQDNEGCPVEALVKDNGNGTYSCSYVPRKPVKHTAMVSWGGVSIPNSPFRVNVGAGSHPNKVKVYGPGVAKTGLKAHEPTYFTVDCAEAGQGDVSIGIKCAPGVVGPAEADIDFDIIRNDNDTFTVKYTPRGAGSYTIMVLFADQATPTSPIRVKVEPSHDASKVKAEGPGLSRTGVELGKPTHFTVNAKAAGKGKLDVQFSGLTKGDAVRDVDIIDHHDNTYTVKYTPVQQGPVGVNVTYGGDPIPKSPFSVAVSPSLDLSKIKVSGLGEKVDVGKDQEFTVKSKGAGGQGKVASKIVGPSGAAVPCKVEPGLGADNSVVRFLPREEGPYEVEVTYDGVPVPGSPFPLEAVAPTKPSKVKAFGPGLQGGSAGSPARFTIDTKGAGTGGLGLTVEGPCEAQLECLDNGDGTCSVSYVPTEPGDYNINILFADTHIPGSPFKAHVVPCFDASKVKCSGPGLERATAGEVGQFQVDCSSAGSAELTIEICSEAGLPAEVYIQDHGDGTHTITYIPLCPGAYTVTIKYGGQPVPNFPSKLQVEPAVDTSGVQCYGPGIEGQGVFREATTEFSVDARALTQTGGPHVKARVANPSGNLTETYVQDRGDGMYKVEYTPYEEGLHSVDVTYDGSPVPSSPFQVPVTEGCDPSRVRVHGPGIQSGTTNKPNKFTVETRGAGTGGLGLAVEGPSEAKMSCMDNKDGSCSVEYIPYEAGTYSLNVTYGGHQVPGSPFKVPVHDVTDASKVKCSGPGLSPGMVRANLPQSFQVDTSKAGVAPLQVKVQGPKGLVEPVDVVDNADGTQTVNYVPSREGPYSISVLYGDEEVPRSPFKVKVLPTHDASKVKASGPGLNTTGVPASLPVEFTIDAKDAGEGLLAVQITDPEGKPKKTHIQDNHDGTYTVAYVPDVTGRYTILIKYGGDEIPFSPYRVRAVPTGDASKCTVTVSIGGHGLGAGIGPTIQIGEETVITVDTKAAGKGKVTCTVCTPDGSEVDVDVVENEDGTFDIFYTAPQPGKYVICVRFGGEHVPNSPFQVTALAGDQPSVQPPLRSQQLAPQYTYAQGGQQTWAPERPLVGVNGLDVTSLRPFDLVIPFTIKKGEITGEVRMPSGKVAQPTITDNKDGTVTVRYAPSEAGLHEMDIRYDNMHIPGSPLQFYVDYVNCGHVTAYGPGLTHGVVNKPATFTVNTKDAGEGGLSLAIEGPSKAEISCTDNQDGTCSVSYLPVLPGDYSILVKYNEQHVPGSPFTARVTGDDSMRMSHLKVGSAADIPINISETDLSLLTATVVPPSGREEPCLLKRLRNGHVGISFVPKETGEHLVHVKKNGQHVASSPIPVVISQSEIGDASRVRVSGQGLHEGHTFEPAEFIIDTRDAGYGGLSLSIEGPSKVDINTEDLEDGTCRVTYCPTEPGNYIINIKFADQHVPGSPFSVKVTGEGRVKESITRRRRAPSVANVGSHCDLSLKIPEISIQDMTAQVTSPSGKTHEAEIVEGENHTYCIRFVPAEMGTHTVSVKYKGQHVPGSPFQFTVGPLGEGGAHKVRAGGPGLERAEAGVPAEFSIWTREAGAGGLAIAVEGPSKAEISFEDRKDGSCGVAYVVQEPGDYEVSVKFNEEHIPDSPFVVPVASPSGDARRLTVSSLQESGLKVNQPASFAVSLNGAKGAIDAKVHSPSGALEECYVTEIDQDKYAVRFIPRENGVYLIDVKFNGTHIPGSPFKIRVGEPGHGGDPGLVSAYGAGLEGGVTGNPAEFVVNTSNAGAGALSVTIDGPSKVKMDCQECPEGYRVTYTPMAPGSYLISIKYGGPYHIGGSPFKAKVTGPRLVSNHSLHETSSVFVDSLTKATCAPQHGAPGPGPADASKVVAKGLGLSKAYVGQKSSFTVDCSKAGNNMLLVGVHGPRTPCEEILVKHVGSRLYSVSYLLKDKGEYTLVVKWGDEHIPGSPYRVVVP
UniProt Q9Y490: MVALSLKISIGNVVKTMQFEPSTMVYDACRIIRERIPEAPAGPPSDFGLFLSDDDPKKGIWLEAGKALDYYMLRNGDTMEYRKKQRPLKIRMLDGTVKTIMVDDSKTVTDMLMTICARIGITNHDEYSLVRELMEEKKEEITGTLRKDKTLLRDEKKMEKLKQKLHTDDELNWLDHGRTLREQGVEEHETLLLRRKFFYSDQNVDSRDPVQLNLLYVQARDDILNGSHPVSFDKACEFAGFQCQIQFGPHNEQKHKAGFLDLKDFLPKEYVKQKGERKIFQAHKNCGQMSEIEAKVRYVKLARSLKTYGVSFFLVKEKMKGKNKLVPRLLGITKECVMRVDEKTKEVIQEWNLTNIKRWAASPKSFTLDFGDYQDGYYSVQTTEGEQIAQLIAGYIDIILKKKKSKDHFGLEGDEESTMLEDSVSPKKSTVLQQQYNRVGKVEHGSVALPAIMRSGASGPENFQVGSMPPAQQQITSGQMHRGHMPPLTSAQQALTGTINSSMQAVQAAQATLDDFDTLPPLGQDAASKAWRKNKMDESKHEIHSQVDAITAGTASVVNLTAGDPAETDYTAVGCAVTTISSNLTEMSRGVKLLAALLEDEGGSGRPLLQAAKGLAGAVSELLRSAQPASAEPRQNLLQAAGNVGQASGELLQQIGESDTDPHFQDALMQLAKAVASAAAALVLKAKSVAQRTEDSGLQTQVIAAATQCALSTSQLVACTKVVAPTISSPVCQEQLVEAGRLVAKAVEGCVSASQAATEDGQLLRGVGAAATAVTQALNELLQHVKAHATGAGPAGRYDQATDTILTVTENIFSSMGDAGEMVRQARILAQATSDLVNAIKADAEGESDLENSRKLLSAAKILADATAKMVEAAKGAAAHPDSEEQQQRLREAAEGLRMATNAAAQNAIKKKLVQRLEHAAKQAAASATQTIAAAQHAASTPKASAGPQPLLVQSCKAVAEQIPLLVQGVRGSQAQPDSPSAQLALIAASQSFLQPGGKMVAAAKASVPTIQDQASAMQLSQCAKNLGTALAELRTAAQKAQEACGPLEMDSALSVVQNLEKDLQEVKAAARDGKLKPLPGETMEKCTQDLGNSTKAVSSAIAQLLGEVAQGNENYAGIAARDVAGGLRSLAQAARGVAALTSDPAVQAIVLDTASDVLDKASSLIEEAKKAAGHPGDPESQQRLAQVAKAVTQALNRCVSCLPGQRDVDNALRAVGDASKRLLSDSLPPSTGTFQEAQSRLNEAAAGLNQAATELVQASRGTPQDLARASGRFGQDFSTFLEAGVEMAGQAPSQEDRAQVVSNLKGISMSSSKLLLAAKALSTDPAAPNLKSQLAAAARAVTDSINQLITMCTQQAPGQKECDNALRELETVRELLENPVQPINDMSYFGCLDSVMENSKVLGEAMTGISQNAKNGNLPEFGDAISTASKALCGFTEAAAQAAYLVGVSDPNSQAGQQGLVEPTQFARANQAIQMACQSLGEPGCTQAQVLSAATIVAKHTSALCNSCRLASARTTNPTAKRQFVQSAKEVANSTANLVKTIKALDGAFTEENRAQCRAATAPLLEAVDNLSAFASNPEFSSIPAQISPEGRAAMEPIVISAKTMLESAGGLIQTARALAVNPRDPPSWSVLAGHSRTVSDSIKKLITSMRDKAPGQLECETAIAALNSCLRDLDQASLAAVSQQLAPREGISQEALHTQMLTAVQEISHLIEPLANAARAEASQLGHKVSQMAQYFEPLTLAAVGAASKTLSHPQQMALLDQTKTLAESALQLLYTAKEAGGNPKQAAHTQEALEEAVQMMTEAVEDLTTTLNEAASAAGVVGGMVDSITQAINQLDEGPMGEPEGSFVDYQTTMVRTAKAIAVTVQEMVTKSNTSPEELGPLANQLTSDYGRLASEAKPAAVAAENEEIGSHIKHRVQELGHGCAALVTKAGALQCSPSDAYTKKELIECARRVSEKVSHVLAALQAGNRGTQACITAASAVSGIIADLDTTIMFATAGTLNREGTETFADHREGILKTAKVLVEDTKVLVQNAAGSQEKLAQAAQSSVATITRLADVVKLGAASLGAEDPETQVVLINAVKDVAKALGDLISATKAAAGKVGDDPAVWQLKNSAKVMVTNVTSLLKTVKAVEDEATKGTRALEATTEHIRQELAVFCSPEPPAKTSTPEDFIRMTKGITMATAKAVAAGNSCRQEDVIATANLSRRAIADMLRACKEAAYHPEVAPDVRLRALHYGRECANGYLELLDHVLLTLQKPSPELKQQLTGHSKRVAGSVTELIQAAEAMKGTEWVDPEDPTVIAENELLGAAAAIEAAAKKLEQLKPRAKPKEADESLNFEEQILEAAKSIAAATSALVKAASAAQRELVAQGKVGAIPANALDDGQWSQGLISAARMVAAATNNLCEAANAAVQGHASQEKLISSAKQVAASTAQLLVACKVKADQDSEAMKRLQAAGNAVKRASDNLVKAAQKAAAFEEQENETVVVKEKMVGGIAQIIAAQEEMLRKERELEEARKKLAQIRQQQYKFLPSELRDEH

These are yes or no findings as the source states them, for the method shown. In cells and extracts the contact can be indirect. These calls come from enrichment with a bait or labelling near it, and not all partners need be listed. Tags and fused reporters may be left off the sequences shown.

Test [1] deals with T1, FKBP4 F130Y-BirA (R118G)-HA (human) (UniProt Q02790).
T1 sequence: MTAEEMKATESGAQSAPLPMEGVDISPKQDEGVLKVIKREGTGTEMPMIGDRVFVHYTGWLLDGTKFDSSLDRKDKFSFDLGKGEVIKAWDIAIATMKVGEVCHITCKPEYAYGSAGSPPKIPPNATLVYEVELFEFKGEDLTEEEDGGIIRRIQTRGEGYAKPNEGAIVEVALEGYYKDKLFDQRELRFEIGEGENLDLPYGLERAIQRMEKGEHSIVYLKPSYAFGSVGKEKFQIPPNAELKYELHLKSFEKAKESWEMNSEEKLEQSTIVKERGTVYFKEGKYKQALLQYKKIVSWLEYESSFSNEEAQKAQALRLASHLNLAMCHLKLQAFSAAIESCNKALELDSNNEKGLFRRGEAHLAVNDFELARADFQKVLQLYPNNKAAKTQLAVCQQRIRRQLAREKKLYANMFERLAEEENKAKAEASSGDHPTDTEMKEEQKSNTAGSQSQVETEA
Description: proximity labelling; BioID and BioID2: FKBP4 (WT or F130Y) fused to BirA(R118G)-HA or BioID2-HA in HEK293T cells, biotin in the medium; RIPA lysate (5000 ug protein), streptavidin beads, SDS-PAGE, LC-MS/MS with Mascot scores compared with vector control or WT.

Test [2] concerns the target T2, FKBP4 F130Y-BioID2-HA (human) (UniProt Q02790).
T2 sequence: T1 sequence
The description is as above.

Regarding DDX3X (from UniProt O00571 1-662), in test [1], the binding result was “binds”.

“Filamin-A (FLNA) (from UniProt P21333 1-2647)”: the binding result in test [2] and in test [1] was “binds” throughout.

On to TALIN-1 (from UniProt Q9Y490 1-2541), for which the binding entry in test [2] and in test [1] was “binds” each time.
